Common to all, as to test: co-IP
For assay [1], the target named is T1, Vangl1, murine, endogenous (mouse (endogenous in IMCD3)) (UniProt Q80Z96).
T1 sequence: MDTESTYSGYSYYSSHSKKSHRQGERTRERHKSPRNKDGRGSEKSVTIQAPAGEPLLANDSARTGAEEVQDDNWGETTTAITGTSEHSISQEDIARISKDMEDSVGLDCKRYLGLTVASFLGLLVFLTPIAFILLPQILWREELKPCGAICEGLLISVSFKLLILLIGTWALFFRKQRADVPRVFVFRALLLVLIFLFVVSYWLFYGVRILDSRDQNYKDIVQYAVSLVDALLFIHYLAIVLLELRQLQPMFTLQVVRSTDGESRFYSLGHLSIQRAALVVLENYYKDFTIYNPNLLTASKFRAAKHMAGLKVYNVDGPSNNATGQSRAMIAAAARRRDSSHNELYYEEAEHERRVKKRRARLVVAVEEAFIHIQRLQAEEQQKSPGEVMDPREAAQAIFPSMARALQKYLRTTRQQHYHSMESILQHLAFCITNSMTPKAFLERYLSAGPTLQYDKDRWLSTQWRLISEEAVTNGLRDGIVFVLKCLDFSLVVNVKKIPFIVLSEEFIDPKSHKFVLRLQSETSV

Assay [2] concerns the target T2, Vangl2 (canonical 521 aa isoform), human, endogenous (human (endogenous in SKBR7 and HEK 293T)) (UniProt Q9ULK5).
T2 sequence: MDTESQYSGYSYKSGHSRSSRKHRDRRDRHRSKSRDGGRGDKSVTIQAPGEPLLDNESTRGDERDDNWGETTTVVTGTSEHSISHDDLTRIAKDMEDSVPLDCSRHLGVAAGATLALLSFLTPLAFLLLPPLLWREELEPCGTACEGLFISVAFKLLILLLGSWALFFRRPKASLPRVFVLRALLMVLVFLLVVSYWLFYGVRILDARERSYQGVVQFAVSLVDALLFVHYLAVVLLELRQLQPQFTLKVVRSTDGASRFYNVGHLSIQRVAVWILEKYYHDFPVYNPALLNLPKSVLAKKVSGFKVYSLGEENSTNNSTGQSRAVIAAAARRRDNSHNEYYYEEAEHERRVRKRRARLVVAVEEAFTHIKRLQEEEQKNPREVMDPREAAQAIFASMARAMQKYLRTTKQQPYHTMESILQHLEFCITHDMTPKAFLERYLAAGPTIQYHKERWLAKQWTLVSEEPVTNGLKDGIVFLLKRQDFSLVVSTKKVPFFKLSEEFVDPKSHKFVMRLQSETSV

For assay [3], the target named is T3, Vangl2 expressed from pVangl2 (human) (UniProt Q9ULK5).
T3 sequence: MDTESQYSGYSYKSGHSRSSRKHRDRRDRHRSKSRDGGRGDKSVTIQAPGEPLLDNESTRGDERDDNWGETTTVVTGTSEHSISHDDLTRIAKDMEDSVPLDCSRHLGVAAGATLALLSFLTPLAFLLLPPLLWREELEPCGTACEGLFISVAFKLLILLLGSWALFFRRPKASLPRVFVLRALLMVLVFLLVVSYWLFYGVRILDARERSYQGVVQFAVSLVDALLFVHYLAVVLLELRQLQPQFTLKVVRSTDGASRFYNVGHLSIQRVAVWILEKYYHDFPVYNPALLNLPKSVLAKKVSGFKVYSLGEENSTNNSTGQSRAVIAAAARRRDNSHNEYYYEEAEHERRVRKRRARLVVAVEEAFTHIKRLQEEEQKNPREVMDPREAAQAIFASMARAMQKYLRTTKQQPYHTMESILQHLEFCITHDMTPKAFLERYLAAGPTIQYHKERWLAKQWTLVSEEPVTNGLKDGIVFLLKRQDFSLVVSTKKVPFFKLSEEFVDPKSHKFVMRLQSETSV

These are yes or no findings as the source states them, for the method shown. Binding seen in cells or lysates may run through a third protein. Some results given as binding are weak or reduced against the parent protein; the word gives no strength. For part of these data: Where a sequence is shown, tags or fusion partners need not be part of it.

B1: Vangl2 (canonical isoform), murine, endogenous (protein, UniProt Q91ZD4 1-521)
chain: MDTESQYSGYSYKSGHSRSSRKHRDRRDRHRSKSRDGSRGDKSVTIQAPGEPLLDNESTRGDERDDNWGETTTVVTGTSEHSISHDDLTRIAKDMEDSVPLDCSRHLGVAAGAILALLSFLTPLAFLLLPPLLWREELEPCGTACEGLFISVAFKLLILLLGSWALFFRRPKASLPRVFVLRALLMVLVFLLVISYWLFYGVRILDARERSYQGVVQFAVSLVDALLFVHYLAVVLLELRQLQPQFTLKVVRSTDGASRFYNVGHLSIQRVAVWILEKYYHDFPVYNPALLNLPKSVLAKKVSGFKVYSLGEENSTNNSTGQSRAVIAAAARRRDNSHNEYYYEEAEHERRVRKRRARLVVAVEEAFTHIKRLQEEEQKNPREVMDPREAAQAIFASMARAMQKYLRTTKQQPYHTMESILQHLEFCITHDMTPKAFLERYLAAGPTIQYHKERWLAKQWTLVSEEPVTNGLKDGIVFLLKRQDFSLVVSTKKVPFFKLSEEFVDPKSHKFVMRLQSETSV
For the molecule B1, the binding result in assay [1] is listed as “binds”.

B2: Vangl1, human, endogenous (protein, UniProt Q8TAA9 1-524)
chain: MDTESTYSGYSYYSSHSKKSHRQGERTRERHKSPRNKDGRGSEKSVTIQPPTGEPLLGNDSTRTEEVQDDNWGETTTAITGTSEHSISQEDIARISKDMEDSVGLDCKRYLGLTVASFLGLLVFLTPIAFILLPPILWRDELEPCGTICEGLFISMAFKLLILLIGTWALFFRKRRADMPRVFVFRALLLVLIFLFVVSYWLFYGVRILDSRDRNYQGIVQYAVSLVDALLFIHYLAIVLLELRQLQPMFTLQVVRSTDGESRFYSLGHLSIQRAALVVLENYYKDFTIYNPNLLTASKFRAAKHMAGLKVYNVDGPSNNATGQSRAMIAAAARRRDSSHNELYYEEAEHERRVKKRKARLVVAVEEAFIHIQRLQAEEQQKAPGEVMDPREAAQAIFPSMARALQKYLRITRQQNYHSMESILQHLAFCITNGMTPKAFLERYLSAGPTLQYDKDRWLSTQWRLVSDEAVTNGLRDGIVFVLKCLDFSLVVNVKKIPFIILSEEFIDPKSHKFVLRLQSETSV
In the case of B2, the binding entry in assay [2] is on record as “binds”.

B3: GFP-Vangl1 (protein, UniProt Q8TAA9 1-524)
chain: MDTESTYSGYSYYSSHSKKSHRQGERTRERHKSPRNKDGRGSEKSVTIQPPTGEPLLGNDSTRTEEVQDDNWGETTTAITGTSEHSISQEDIARISKDMEDSVGLDCKRYLGLTVASFLGLLVFLTPIAFILLPPILWRDELEPCGTICEGLFISMAFKLLILLIGTWALFFRKRRADMPRVFVFRALLLVLIFLFVVSYWLFYGVRILDSRDRNYQGIVQYAVSLVDALLFIHYLAIVLLELRQLQPMFTLQVVRSTDGESRFYSLGHLSIQRAALVVLENYYKDFTIYNPNLLTASKFRAAKHMAGLKVYNVDGPSNNATGQSRAMIAAAARRRDSSHNELYYEEAEHERRVKKRKARLVVAVEEAFIHIQRLQAEEQQKAPGEVMDPREAAQAIFPSMARALQKYLRITRQQNYHSMESILQHLAFCITNGMTPKAFLERYLSAGPTLQYDKDRWLSTQWRLVSDEAVTNGLRDGIVFVLKCLDFSLVVNVKKIPFIILSEEFIDPKSHKFVLRLQSETSV
Turning to B3, in assay [3], the binding entry is “binds”.
